{"source": "patent US20130295118A1", "about": "(CELLERANT THERAPEUTICS, published 2013)", "binders": {"B1": {"name": "CLL-1 antibody clone M26 (antibody, V domains shown)", "VH": "EVQLQQSGPELVKPGASVKMSCKASGYTFTSYFIHWVKQKPGQGLEWIGFINPYNDGSKYNEKFKGKATLTSDKSSSTAYMELSSLTSEDSAVYYCTRDDGYYGYAMDYWGQGTSVTVSS", "VL": "DIQMTQSPSSLSASLGERVSLTCRATQELSGYLSWLQQKPDGTIKRLIYAASTLDSGVPKRFSGNRSGSDYSLTISSLESEDFADYYCLQYAIYPYTFGGGTKLEIKR", "notes": "Conjugated to saporin in the ADC assays"}, "B2": {"name": "CLL-1 antibody clone M2 (antibody, IgG1, V domains shown)", "VH": "B1 VH with Q5R, I34M, S58T, S84N, G104D", "VL": "B1 VL with T26S, L29I, G31V, K60E, N65S, I93S"}, "B3": {"name": "CLL-1 antibody clone M31 (antibody, IgG2a, V domains shown)", "VH": "EVQLQQSGPELVKPGASVKMSCKASGYTFTSYVMHWVKQKPGQGLEWIGYINPYNDGTKYNEKFKGKATLTSDTSSSTAYMELNSLTSEDSAVYFCARPIYFDNDYFDYWGQGTTLKVSS", "VL": "TIVLTQSPASLAVSLGQRATISCRASESVDSYGNSFMHWYQQKPGQPPKLLIYLASNLESGVPARFSGSGSRTDFTLTIDPVEADDAATYYCQQNNYDPWTFGGGTKLEIK"}, "B4": {"name": "CLL-1 antibody clone G4 (antibody, IgG1, V domains shown)", "VH": "EVQLQQSGPELVKPGASMKISCKASGYSFTGYTMNWVKQSHEKNLEWIGPINPYNDGTIYNPNFKGKATLTVDKASSTAYMELLSLTSDDPAVYYCARTDDYDDYTMDYWGQGTSVTVSS", "VL": "EIQMTQTPSSLSASLGDRVTISCRASHDISNYLNWYQQKPDGTLKLLIYYTSRLHSGVPSRFSGSGSGTDYSLTISNLEQEDIATYFCQQGKTLLWTFGGGTKLEIK", "notes": "also called 31.G4; 31G4"}, "B5": {"name": "CLL-1 antibody clone M5 (antibody, IgG2a, V domains shown)", "VH": "EVQLQQSGAELVRPGASVKLSCTASGFNIKDDYIHWVKQRPEQGLEWIGWIDPEKGDTAYASKFQDKATITSDTSSNTAYLQLSSLTSEDTAVYYCTLTGRFDYWGQGTTLTVSS", "VL": "DIVMSQSPSSLAVSVGEKVTMSCKSSQSLLYSSNQKNNLAWYQQKPGQSPKLLIYWASTRESGVPDRFTGSGSGTDFTLTISSVQAEDLAVYYCQQYYSYRTFGGGTKLEIK"}, "B6": {"name": "CLL-1 antibody clone M29 (antibody, IgG1, V domains shown)", "VH": "EVQLQQSGPELVKPGASVKMSCKASGYIFTSYVMYWVKQKPGQGLEWIGYINPYNDGTKYNEKFKGKATLTSDKSSSTAYMELSSLTSEDSAVYYCARYYDYDYYFDYWGQGTTLTVSS", "VL": "DIQMTQSPSSLSASLGGKVTITCKASQDINKYIAWYQHKPGKGPRLLIHYTSTLQPGIPSRFSGSGSGRDYSFSISNLEPEDIATYYCLQYDYLWTFGGGTKLEIK"}, "B7": {"name": "CLL-1 antibody clone M22 (antibody, IgG2a, V domains shown)", "VH": "QVQLQQPGAELVKPGASVKLSCKASGYTFTRYWMHWVKQRPGQGLEWIGNIDPSDTETHYNQQFKDKATLTVDKSSSTAYMQLSSLTSEDSAVYYCAIYYGNPSYYAMDYWGQGTSVTVSS", "VL": "DIVMTQSPSSLTVTAGEKVTMSCKSSQNLLNSGNQKKYLNWYQQKPGQPPKLLIYWASTRESGVPDRFTGSGSGTDFTLTISSVQAEDLAVYFCQNDYSYPFTFGAGTKLELK"}}, "note": "Positions count from the first letter of the chain named. Results are given in words; binding and its absence hold for the method and conditions named. Binding can be weak; no strength is given.", "data": [{"target": "Cynomolgus monkey CLL-1 (cynomolgus monkey)", "test": "ELISA, relative binding", "values": [{"binder": "B1", "binding": "binds"}, {"binder": "B2", "binding": "binds"}, {"binder": "B3", "binding": "binds"}, {"binder": "B4", "binding": "binds"}, {"binder": "B5", "binding": "binds"}, {"binder": "B6", "binding": "binds"}, {"binder": "B7", "binding": "no binding"}]}]}
